Values quoted from earlier work, collected in patent publication US10253006B2, “Assay for the detection of the phenylpiperazine family” (RANDOX LABORATORIES LIMITED, priority 2012, dated 2019).
Some results were stated once for a whole list of compounds, not compound by compound.

Tested on: EMIT II plus Ecstasy Assay (SYVA/Dade Behring)
Conditions: commercial EMIT II plus Ecstasy Assay (Logan et al., 2010); cited from earlier work

| SMILES | concentrations at which cross-reactivity is shown |
| --- | --- |
| Clc1cccc(N2CCNCC2)c1 [1-(3-Chlorophenyl)piperazine (mCPP), 1-(3-chlorophenyl)piperazine] | 5,000-10,000 ng/ml |
| FC(F)(F)c1cccc(N2CCNCC2)c1 [1-(3-Trifluoromethylphenyl)piperazine] | 5,000-10,000 ng/ml |
